{"sequences": {"note": "By UniProt entry, the sequences of proteins in these tests, tags left out.", "UniProt Q8IB67": "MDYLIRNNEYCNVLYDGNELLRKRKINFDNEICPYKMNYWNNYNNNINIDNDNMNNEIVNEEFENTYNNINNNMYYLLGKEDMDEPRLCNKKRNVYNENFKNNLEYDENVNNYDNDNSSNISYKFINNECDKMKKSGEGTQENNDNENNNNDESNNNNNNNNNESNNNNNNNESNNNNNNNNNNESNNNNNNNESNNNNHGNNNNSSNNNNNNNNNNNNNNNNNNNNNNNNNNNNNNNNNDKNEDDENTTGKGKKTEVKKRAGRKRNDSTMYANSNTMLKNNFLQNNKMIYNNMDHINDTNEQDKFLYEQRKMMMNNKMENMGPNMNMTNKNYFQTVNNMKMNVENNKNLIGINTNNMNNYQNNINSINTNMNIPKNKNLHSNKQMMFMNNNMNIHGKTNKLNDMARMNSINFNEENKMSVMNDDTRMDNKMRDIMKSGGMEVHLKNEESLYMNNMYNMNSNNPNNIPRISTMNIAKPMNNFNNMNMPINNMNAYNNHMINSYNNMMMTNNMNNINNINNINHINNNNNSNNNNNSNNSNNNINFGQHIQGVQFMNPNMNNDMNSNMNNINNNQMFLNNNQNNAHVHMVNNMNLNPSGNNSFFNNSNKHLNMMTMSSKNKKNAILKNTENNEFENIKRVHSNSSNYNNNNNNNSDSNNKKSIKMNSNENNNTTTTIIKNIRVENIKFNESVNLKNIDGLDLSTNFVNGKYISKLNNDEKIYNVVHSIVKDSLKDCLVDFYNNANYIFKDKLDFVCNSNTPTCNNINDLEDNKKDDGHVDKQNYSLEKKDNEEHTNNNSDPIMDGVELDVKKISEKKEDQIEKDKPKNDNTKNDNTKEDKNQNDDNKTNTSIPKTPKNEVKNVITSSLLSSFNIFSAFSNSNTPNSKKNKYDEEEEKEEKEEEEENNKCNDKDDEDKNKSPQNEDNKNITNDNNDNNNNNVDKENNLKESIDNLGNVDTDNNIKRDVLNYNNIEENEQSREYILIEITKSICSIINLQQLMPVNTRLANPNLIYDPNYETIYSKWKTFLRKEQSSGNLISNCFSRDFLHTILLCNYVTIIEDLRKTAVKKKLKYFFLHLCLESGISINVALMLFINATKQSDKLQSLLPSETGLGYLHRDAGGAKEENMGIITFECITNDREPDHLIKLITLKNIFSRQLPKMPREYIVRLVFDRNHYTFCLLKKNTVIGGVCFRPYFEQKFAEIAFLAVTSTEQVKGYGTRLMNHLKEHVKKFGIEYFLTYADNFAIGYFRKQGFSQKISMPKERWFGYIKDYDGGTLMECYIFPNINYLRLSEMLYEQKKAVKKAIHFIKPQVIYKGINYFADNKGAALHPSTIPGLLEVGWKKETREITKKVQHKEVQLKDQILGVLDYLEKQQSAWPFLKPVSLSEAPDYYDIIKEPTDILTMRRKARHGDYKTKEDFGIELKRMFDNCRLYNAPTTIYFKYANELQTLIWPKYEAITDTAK"}, "source": "paper doi:10.1101/679100", "binders": {"B1": {"name": "PfAlba3 (protein, UniProt Q8IJX8 1-107)", "chain": "MASTEEVSQERSENSIQVSMTKKPTFYARIGKRMFTGNEEKNPFDEVIITGLGNATKIAIGAASIMEKEDIGQIVKVQTAYFSSDRINRRIPKITIVLKKHPDFVAN"}}, "target": "PfGCN5 (P. falciparum (endogenous in strain 3D7 parasites)) (UniProt Q8IB67)", "assay": "co-IP", "note": "These are yes or no findings as the source states them, for the method shown. In cells and extracts the contact can be indirect. Some entries that bind do so weakly or less than the wild type.", "data": [{"binder": "B1", "values": [{"measurement": "binding", "value": "binds"}]}]}
